# Paper PMC7819943, “Rice protein-binding microarrays: a tool to detect cis-acting elements near promoter regions in rice”
# Protein sequences, listed by entry. Tags and fused reporters are not part of them.
# UniProt Q0JBA9, entry or part of it: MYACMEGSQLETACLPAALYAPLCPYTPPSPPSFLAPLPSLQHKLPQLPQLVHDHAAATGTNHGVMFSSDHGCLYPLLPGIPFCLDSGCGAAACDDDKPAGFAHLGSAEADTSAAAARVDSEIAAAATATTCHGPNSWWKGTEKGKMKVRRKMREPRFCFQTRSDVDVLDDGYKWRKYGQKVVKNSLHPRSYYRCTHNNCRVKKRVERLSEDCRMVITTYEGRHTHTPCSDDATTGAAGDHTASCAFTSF
# The list shows a part of the results.
# Biological target: OsWRKY34 (Oryza sativa, UniProt Q0JBA9 1-250)
# Test: protein-binding microarray (RPBM); PBS, 2% BSA, 51.3 ng/ul salmon testes DNA, 50 uM zinc acetate, 200 nM TF, 25 C, 1 h; high values mean tight binding
# Conditions: protein: recombinant; tags: N-terminal polyhistidine and DsRed monomer fusion (pET32a); label: CyDye5-dUTP incorporated in the synthesized complementary strand; 3' TTTTT single-stranded linker to array surface; dsDNA, one strand shown
# Method in brief: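 The binding signal is fluorescence intensity per feature, in arbitrary units, read on an Axon 4000B scanner. Polyhistidine- and DsRed-tagged transcription factors (N-terminal fusions) from E. coli BL21-CodonPlus were purified on Ni–NTA and applied at 200 nM for 1 h at 25 °C to a double-stranded, BSA-blocked custom Agilent array in buffer with 50 µM zinc acetate.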
row,Sequence,binding signal
1,ATAGAAAGGACTTCACTGCCCCTGCCATGCCAACCGCAGCCGGAGTCACCTAGTGCAG,8330 fluorescence intensity (a.u.)
2,GCAAGTTTTAGCCTGATTTCCTCTGCTACCTTTCGGCAACCGGAGTCACCTAGTGCAG,9170 fluorescence intensity (a.u.)
3,AACCAACACTGACATCATGTTCATTCACTGTGAGGAGAGGCGGAGTCACCTAGTGCAG,8210 fluorescence intensity (a.u.)
4,TTGGTTGTGTTACCCGCTGCCGCAGCTTTTCCAGCCGAACCGGAGTCACCTAGTGCAG,8580 fluorescence intensity (a.u.)
5,CCTATTCGTTTGTTCCCAGTTTTTAACAGATTGTTCCTCTCGGAGTCACCTAGTGCAG,8590 fluorescence intensity (a.u.)
6,TTATATGGATTCTTCTTTCAATATGCTTATTTTTAATTCCCGGAGTCACCTAGTGCAG,9000 fluorescence intensity (a.u.)
7,CCGGGTGGGGTCAGCATCTGTCAGACGGTCCCACGAGTTCCGGAGTCACCTAGTGCAG,8630 fluorescence intensity (a.u.)
8,AGGGGTGAAAGGTTTTGGCGTGTCACATTGGATATACGGGCGGAGTCACCTAGTGCAG,9280 fluorescence intensity (a.u.)
9,ATCCCGATTTTTCTTTCTTTTTTTTCTCTGCCTCTGCGAGCGGAGTCACCTAGTGCAG,9810 fluorescence intensity (a.u.)
10,TTCTCGACCTCCCGTACTCGTTTCCTTGTCGCCTCTTCTTCGGAGTCACCTAGTGCAG,15200 fluorescence intensity (a.u.)
11,CTCTACACTCTAGCAATTCAACAATTATTTTCCTTTGTTTCGGAGTCACCTAGTGCAG,8390 fluorescence intensity (a.u.)
12,TTTTGTGTTATTCCCTGTTTTCTTCACATGCTATTTTGTGCGGAGTCACCTAGTGCAG,12800 fluorescence intensity (a.u.)
13,GAGGTCCCGTCGCTCCGGCGAGCTCCCGCCATCCGCCTCGCGGAGTCACCTAGTGCAG,8630 fluorescence intensity (a.u.)
14,GGCCACTCGTATAAATTAGCTGCGCTCTCCTCCCTTTTCCCGGAGTCACCTAGTGCAG,9850 fluorescence intensity (a.u.)
15,CACACCTCGCCGCTCTTCCCGGCCTCCACCCGCCGCCCTTCGGAGTCACCTAGTGCAG,8510 fluorescence intensity (a.u.)
16,GTTACTAATTAAGTTGCATCATTGTCCATGGTTGTACATCCGGAGTCACCTAGTGCAG,9100 fluorescence intensity (a.u.)
17,CATTAGTCTATTGCGTGTGTACAGCCCACAAGCTAACCCTCGGAGTCACCTAGTGCAG,9440 fluorescence intensity (a.u.)
18,AATAGATGACGCTGTTGACTTTTTGTCATATTTTTGACCACGGAGTCACCTAGTGCAG,14100 fluorescence intensity (a.u.)
19,TGTCAAAAGTTGCAGGGGCAATGGCGTGGAGGGAGGGTACCGGAGTCACCTAGTGCAG,8160 fluorescence intensity (a.u.)
20,TGAGGTTTTGGGTTCTTGGGCACTTCTTGTTCTAGCCAAGCGGAGTCACCTAGTGCAG,9900 fluorescence intensity (a.u.)
21,ATGACAAGTTGAGGGACCTTCGGTGTACTTTTTCCTTTCCCGGAGTCACCTAGTGCAG,9790 fluorescence intensity (a.u.)

row,Sequence,binding signal
1,GCCGTGTTTAGTTTCAAAGTTTTTCTTCAAACTTCCAACTCGGAGTCACCTAGTGCAG,8680 fluorescence intensity (a.u.)
2,GTTTGTTAGTCTTCTCATTTGGACCTATAATTACGACTGTCGGAGTCACCTAGTGCAG,8930 fluorescence intensity (a.u.)
3,AATGTTTACTCAGAGTTGAAATTCTTTGTCAATTGTCCTTCGGAGTCACCTAGTGCAG,8260 fluorescence intensity (a.u.)
4,ATGACTTCCGATCTACTACTCCAGTCTACTAGACCGCACACGGAGTCACCTAGTGCAG,8080 fluorescence intensity (a.u.)
5,AAAGCTCTCCACGTCACCACCGCCGCCACGCTCTCGCCTCCGGAGTCACCTAGTGCAG,9580 fluorescence intensity (a.u.)
6,TTCCACCGCCGCCGCCGCCGCCGCCGCTCGCCGCCGCTCCCGGAGTCACCTAGTGCAG,8670 fluorescence intensity (a.u.)
7,CTCTCTCTCTCTCTCTCTCTCTCTCCAACCACTCCAACGACGGAGTCACCTAGTGCAG,10300 fluorescence intensity (a.u.)
8,GCAGTAGGGGTCTCGCATCCTCTACAGTCACTCGCTTAGCCGGAGTCACCTAGTGCAG,8980 fluorescence intensity (a.u.)
9,TAACACGGGTGTCCTTCGTCGAATGATTCTTTCGCTGTTTCGGAGTCACCTAGTGCAG,10200 fluorescence intensity (a.u.)
10,TTATAAACTTGGTCAAACTTAATAAAGTTTGACTAGAAAACGGAGTCACCTAGTGCAG,8320 fluorescence intensity (a.u.)
11,GCTATGCCTCGCGTGCTCGCTGCTGCTGCGCGCCCGCGCGCGGAGTCACCTAGTGCAG,8200 fluorescence intensity (a.u.)
12,AGGGGAGAGGAGGGGAGGCGGCGCGGCGGCGAGGAGGGGACGGAGTCACCTAGTGCAG,10200 fluorescence intensity (a.u.)
13,GCGTTGGGTCAAATGGTCAATGGTTGTGGGACTGTGGGGCCGGAGTCACCTAGTGCAG,8360 fluorescence intensity (a.u.)
14,ACACATAGTGTTGGCCACACCTGTCGGTTTCATGGTTAATCGGAGTCACCTAGTGCAG,9100 fluorescence intensity (a.u.)
15,ATCCGATCCTCTTCTCTTCTCTTCTCTTCTTCCCCACATCCGGAGTCACCTAGTGCAG,8660 fluorescence intensity (a.u.)
16,TGTTTGTTGCTCACTCCTTTCTTGATTATTAGTTGGTAGCCGGAGTCACCTAGTGCAG,9820 fluorescence intensity (a.u.)
17,TCCTTTTTTTAAATCAACGGGACTCCAGTTTTTATATTTTCGGAGTCACCTAGTGCAG,9060 fluorescence intensity (a.u.)
18,CTCACAGTAAGCTTGTCCAACAGATCCATTCCTAACCTACCGGAGTCACCTAGTGCAG,8140 ± 110 fluorescence intensity (a.u.)
19,GTTCCACGTTTGAAGGCATTTCTGTCCCGTCCAGATTCATCGGAGTCACCTAGTGCAG,9480 fluorescence intensity (a.u.)
20,CATGCTTTCATTGTTGTTGTCGTGCCTTACTACGTTTCAGCGGAGTCACCTAGTGCAG,9000 fluorescence intensity (a.u.)
21,TCATCCACACGCGCCATTGTTTGTTGCCGAAAATTGAAAACGGAGTCACCTAGTGCAG,8380 fluorescence intensity (a.u.)

row,Sequence,binding signal
1,AGGCTCCACTCCGACGAGATAGCTTCGTGTTGGCCAACGCCGGAGTCACCTAGTGCAG,8930 fluorescence intensity (a.u.)
2,CCACCGCCCACCGCGCCGTCGTATAACTCTCTCCATGTCTCGGAGTCACCTAGTGCAG,9560 fluorescence intensity (a.u.)
3,ACAACGAACTATTCACCATATTCACCACACGCCCTTCTGTCGGAGTCACCTAGTGCAG,8400 fluorescence intensity (a.u.)
4,TATCTAAATATTTGACGCCGTTGACTTTTTAAAACATGTTCGGAGTCACCTAGTGCAG,30900 fluorescence intensity (a.u.)
5,CTTTCACGAATAGGCTCTCGACACTACTTATTGCTGTCTACGGAGTCACCTAGTGCAG,8720 fluorescence intensity (a.u.)
6,ATTTAGGGTTAGGTTTTTTGGTTTCTTTTATTTCTTTTTCCGGAGTCACCTAGTGCAG,11200 fluorescence intensity (a.u.)
7,TTCGTGCCGTCCTTTTACAATTTTATACGTGTCTTATTACCGGAGTCACCTAGTGCAG,13500 fluorescence intensity (a.u.)
8,TCTTTGCTGGTTTCCTCACAACCACTCTTCCAAAATTATGCGGAGTCACCTAGTGCAG,8420 fluorescence intensity (a.u.)
9,AACCTAAACCCAATTTATTTGTTCGTCCTTTTCCGATTGACGGAGTCACCTAGTGCAG,9280 fluorescence intensity (a.u.)
10,CGCGGTGATATCTCTATTCAGTCGATCTCCTTCTTATCTTCGGAGTCACCTAGTGCAG,8620 fluorescence intensity (a.u.)
11,GCTGTCGCCGCGGAAACCGTTTCTTTCTTCTTTTTTTCCTCGGAGTCACCTAGTGCAG,9000 fluorescence intensity (a.u.)
12,GTGGTGGGGTGGCAAGGAGGAGCGGGGCACGCCGGTGGTGCGGAGTCACCTAGTGCAG,12100 fluorescence intensity (a.u.)
13,TAGCTTTCTTTCCCTGCTCGTTTTCTTCTCTCTTGCGCCACGGAGTCACCTAGTGCAG,10000 fluorescence intensity (a.u.)
14,ATTCCGTATCGATCTCTGCCTTTCTCTGTCTCTGCACTGACGGAGTCACCTAGTGCAG,10800 fluorescence intensity (a.u.)
15,TTTATCCTTTGCTTTCCACTTGATTTCTCCACTGACTCATCGGAGTCACCTAGTGCAG,9860 fluorescence intensity (a.u.)
16,ATTTCGGTCTCATTTCTGTTAGTTCGGTTGGTTTTAATTTCGGAGTCACCTAGTGCAG,10500 fluorescence intensity (a.u.)
17,TCTCGCTGTATCTGCTCCGCCCGCCCGCCATATCTCCTTCCGGAGTCACCTAGTGCAG,8120 fluorescence intensity (a.u.)
18,AAACTTAATTAATCATATGTTATTGGTTTTCTCGTTTTACCGGAGTCACCTAGTGCAG,9060 fluorescence intensity (a.u.)
19,ATTGCACACCCTAAACTTGTAAAACCGGACGAATTATCCCCGGAGTCACCTAGTGCAG,8220 fluorescence intensity (a.u.)
20,TCCGTCACCAATGATGTCCCGGCGCCCTTCTTTGTATCCGCGGAGTCACCTAGTGCAG,12600 fluorescence intensity (a.u.)
21,TTTTGCCATCTGGTAATCCCTCTACCACCAACAGCTACAACGGAGTCACCTAGTGCAG,9220 fluorescence intensity (a.u.)

row,Sequence,binding signal
1,CCATCCCTTTCACTGTCGTCGCGGCCTCCCTGACCGCGCCCGGAGTCACCTAGTGCAG,13000 fluorescence intensity (a.u.)
2,CTCTCAACCCATCGGCCATCGCCCACCACCGCCATTCGCCCGGAGTCACCTAGTGCAG,11100 fluorescence intensity (a.u.)
3,GATCTCTTCTCGCTTCACGCTTCTCTCCTCCTCTCCGCGGCGGAGTCACCTAGTGCAG,12000 fluorescence intensity (a.u.)
4,GTGTTGGCCCAGTCATTTTTGGCCTTTTTTAGCTGTCTGTCGGAGTCACCTAGTGCAG,9030 fluorescence intensity (a.u.)
5,GCCGCCGCCCGCCGCCGCCGAGACCGACCCGACCACGATGCGGAGTCACCTAGTGCAG,8960 fluorescence intensity (a.u.)
6,TCTTACCATTGTATTCTGGCAGTTCAACTTCCATGGAATTCGGAGTCACCTAGTGCAG,11400 fluorescence intensity (a.u.)
7,ATCATCATATGTTTCACTCTTTTCAGTGTTGTGCTGCAACCGGAGTCACCTAGTGCAG,8710 fluorescence intensity (a.u.)
8,CTAACATCCTAATTCTTTACCTTCCCTGTACCTTTGATTTCGGAGTCACCTAGTGCAG,12500 fluorescence intensity (a.u.)
9,CGCCGACGCCCCACCGTGCCGCCACCCCGGCCTCGCCGGCCGGAGTCACCTAGTGCAG,8540 fluorescence intensity (a.u.)
10,CCTACACCCACCAGAATATATGTTATGCTGCCCGCGTATGCGGAGTCACCTAGTGCAG,9620 fluorescence intensity (a.u.)
11,CCCTCCTTCGCCACACCTCGTCTATCTCTACGCTTCCTGCCGGAGTCACCTAGTGCAG,8720 fluorescence intensity (a.u.)
12,ATGGTGGGGATTAAAAGTGGATTAACCGAGCTTCCGATCGCGGAGTCACCTAGTGCAG,9800 fluorescence intensity (a.u.)
13,GCACCACTTGCCACTACCCCTGATGTAAGATGGCTCGTCACGGAGTCACCTAGTGCAG,8030 fluorescence intensity (a.u.)
14,GGTCCCAACTCCCAATCACCCAACCCAAAAAGTTGAATCCCGGAGTCACCTAGTGCAG,8100 fluorescence intensity (a.u.)
15,CTCACTTCCACTAATCACACTCTACAGTCTCACTCCTAGACGGAGTCACCTAGTGCAG,8950 fluorescence intensity (a.u.)
16,TATCATCTCTTTGGTTTTTTTGTCTTTTCTAAATTATTTACGGAGTCACCTAGTGCAG,10600 fluorescence intensity (a.u.)
17,GGACAAATATCTTTTCTACTGTTTGCTGGCTCTCTCTCTTCGGAGTCACCTAGTGCAG,8620 fluorescence intensity (a.u.)
18,GCTCGGTTTATTTTCCTCCTCCAATCCCTTTCCGGCTAGCCGGAGTCACCTAGTGCAG,8540 fluorescence intensity (a.u.)
19,GAACCGTTGCCGTGCCGCCGCCGCCGCCATTGACGCCATGCGGAGTCACCTAGTGCAG,10100 fluorescence intensity (a.u.)
20,GCTAACCAGTAACCACCCCTGCCGCCTCGCTTCCACTTCCCGGAGTCACCTAGTGCAG,9230 fluorescence intensity (a.u.)
21,CTACATGTTACATATTACGTCCATTTGAGTTCATTTTTTCCGGAGTCACCTAGTGCAG,14900 fluorescence intensity (a.u.)

# A run of entries from further up, for reference:
row,Sequence,binding signal
5,CTTTCACGAATAGGCTCTCGACACTACTTATTGCTGTCTACGGAGTCACCTAGTGCAG,8720 fluorescence intensity (a.u.)
6,ATTTAGGGTTAGGTTTTTTGGTTTCTTTTATTTCTTTTTCCGGAGTCACCTAGTGCAG,11200 fluorescence intensity (a.u.)
7,TTCGTGCCGTCCTTTTACAATTTTATACGTGTCTTATTACCGGAGTCACCTAGTGCAG,13500 fluorescence intensity (a.u.)
